Data as given in patent publication US10066004B2 (ARIZONA CANCER THERAPEUTICS, LLC, priority 2010, dated 2018).
Positions of bridges follow the written chain, without caps; N, C: chain ends. Non-standard residues stand in square brackets, D forms with d. Residues, ends and D or L forms follow the SMILES beside them. R8 = C=CCCCCCC[C@@](C)(N)C(=O)O; S5 = C=CCCC[C@](C)(N)C(=O)O

Tested on: Ecyl EGFR peptide
Assay: ITC binding experiments
Conditions: target at 500 uM

CC[C@H](C)[C@H](NC(=O)[C@H](Cc1c[nH]cn1)NC(=O)[C@H](CCCNC(=N)N)NC(=O)[C@H](CCCNC(=N)N)NC(=O)[C@H](CCCNC(=N)N)NC(=O)[C@H](CCSC)NC(=O)[C@H](Cc1ccccc1)NC(=O)[C@H](C)NC(=O)[C@H](CCCNC(=N)N)NC(=O)[C@H](C)NC(=O)[C@H](CCC(N)=O)NC(=O)[C@H](CCCNC(=N)N)NC(=O)[C@H](C)NC(=O)[C@H](C)NC(=O)[C@H](C)NC(=O)[C@H](CCCNC(=N)N)NC(=O)[C@H](C)NC(=O)[C@@H](N)Cc1ccc(O)cc1)C(=O)N[C@]1(C)CCCCCCC=CCCC[C@@](C)(C(=O)N[C@@H](CC(C)C)C(=O)N[C@@H](CC(C)C)C(=O)N[C@@H](CCC(N)=O)C(=O)N[C@@H](CCC(=O)O)C(=O)N[C@@H](CCCNC(=N)N)C(=O)N[C@@H](CCC(=O)O)C(=O)O)NC(=O)[C@H](CCCNC(=N)N)NC(=O)[C@H](CC(C)C)NC(=O)[C@H]([C@@H](C)O)NC(=O)[C@H](CCCNC(=N)N)NC(=O)[C@H](CCCCN)NC(=O)[C@H](CCCNC(=N)N)NC1=O [SAH-EJ1] (H-YARAAARQARAFMRRRHI[R8]RKRTLR[S5]LLQERE-OH; staple 19-26; N-terminus and C-terminus assumed)
n (ITC stoichiometry) (peptide at 100 uM): 0.523
n (ITC stoichiometry) (peptide at 150 uM): 0.437
